Measured values from patent publication EP4676971A2.
No constants are given. Whether binding was seen depends on the method and setting. Some results given as binding are weak or reduced against the parent protein; the word gives no strength.

Biological target: T1, DR3 receptor on human TF-1 cells (human) (UniProt Q93038)
T1 sequence (looked up): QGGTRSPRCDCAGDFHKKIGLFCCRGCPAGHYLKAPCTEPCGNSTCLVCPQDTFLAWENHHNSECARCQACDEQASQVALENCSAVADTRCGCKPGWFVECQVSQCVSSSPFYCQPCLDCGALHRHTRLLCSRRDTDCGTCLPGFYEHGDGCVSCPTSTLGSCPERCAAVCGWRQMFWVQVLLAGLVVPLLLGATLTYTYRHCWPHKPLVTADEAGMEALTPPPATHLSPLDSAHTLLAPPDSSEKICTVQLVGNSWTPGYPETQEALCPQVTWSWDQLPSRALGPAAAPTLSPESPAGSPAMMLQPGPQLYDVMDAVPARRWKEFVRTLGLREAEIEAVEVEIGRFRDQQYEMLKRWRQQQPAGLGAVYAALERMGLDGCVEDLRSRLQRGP
Assay: TF-1 cell caspase activation assay

B1: recombinant cynomolgus monkey TL1A protein (ligand)
chain: LKGQEFAPSHQQVYAPLRADGDKPRAHLTVVRQTPTQHLKNQFPALHWEHELGLAFTKNRMNYTNKFLLIPESGDYFVYSQVTFRGMTSECSEIRQAGRPNKPDSITVVITKVTDSYPEPTQLLMGTKSVCEVGSNWFQPIYLGAMFSLQEGDKLMVNVSDISLVDYTKEDKTFFGAFLL
With B1 the binding was “binds”.
